Measurements reported in PubChem BioAssay AID1259308 (NCATS, 2017).

Aim: 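Genes whose loss raises luciferase production in HEK293 cells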 (primary screen)
Cell system: human HEK293 embryonic kidney cells stably expressing firefly luciferase (HEK-CMV-Luc2-Hygro)
Knock-down reagent: single siRNA against human genes, 0.8 pmol siRNA per well
Duration: 72 h
Measured: 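Reporter luminescence and viable-cell signal on separate replicate plates, given as percent of non-targeting control and median/MAD z-scores, plus per-cell luciferase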
Reading the numbers: total luciferase, z-score: higher = more reporter protein produced
Active means: 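An siRNA counts as active if its total luciferase robust z-score exceeds 3; genes with two or more such siRNAs out of three were retested with fresh siRNAs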
Meaning of the calls: active = raised luciferase; inactive = no rise
The whole screen tested about 59,000 reagents; shown is a part drawn at random. Of all reagents, about 1,510 (2.6%) were called active. 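Calls use total luciferase alone and ignore viability, so some active siRNAs may act by altering cell number.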 Entries without a mark were called inactive. The numbers tell different reagents against one gene apart. Further read-outs or replicates are left out here.

total luciferase, z-score, by gene and reagent
BRK1 (BRICK1 subunit of SCAR/WAVE actin nucleating complex): #1 -0.537; #2 0.372; #3 -2.13
DENND4A (DENN domain containing 4A): #1 -1.01; #2 0.181; #3 1.02
DCPS (decapping enzyme, scavenger): #1 -0.245; #2 0.683; #3 2.64
SMC1A (structural maintenance of chromosomes 1A): #1 0.998; #2 0.759; #3 -1.47
PRR21 (proline rich 21): #1 -1.18; #2 0.16; #3 2.55

Sorted by “total luciferase, z-score” (lowest first): some entries from above
Gene	reagent	total luciferase, z-score
SMC1A (structural maintenance of chromosomes 1A)	3	-1.47
PRR21 (proline rich 21)	1	-1.18
PRR21 (proline rich 21)	2	0.16

Continued.
total luciferase, z-score, by gene and reagent
ZDHHC14 (zDHHC palmitoyltransferase 14): #1 -1.64; #2 0.33; #3 -0.579
OR3A2 (olfactory receptor family 3 subfamily A member 2): #1 0.0912; #2 -0.196; #3 0.194
BCL2L10 (BCL2 like 10): #1 -0.873; #2 -0.0735; #3 -0.16
